{"source": "patent US20260191191A1", "about": "“METHOD FOR INACTIVATING ENVELOPED VIRUSES” (Merck Patent GmbH, priority 2022, published 2026)", "experiment": "Detergent removal in downstream processing (chromatography scout column, HPLC-ELSD detection)", "details": "for Detergent conc. in eluate after purification: LOD 2 μg/mL"}
{"substance": "C11-C15 secondary alcohol ethoxylate", "values": [{"measurement": "Detergent conc. in eluate after purification", "setting": "Anion Exchange (Fractogel EMD TMAE Hicap), 10 957 μg/g before purification", "result": "<LOD"}, {"measurement": "Detergent conc. in eluate after purification", "setting": "Cation Exchange (Eshmuno S), 9060 μg/g before purification", "result": "<LOD"}, {"measurement": "Detergent conc. in eluate after purification", "setting": "Protein A (Eshmuno Prot A), 9663 μg/g before purification", "result": "<LOD"}, {"measurement": "detergent in the eluate and CIP fractions", "setting": "protein A, cation and anion exchange", "result": "No traces of detergent were detected"}]}
